# According to PubChem BioAssay AID328 (DTP/NCI, 2004):
# The list does not hold the whole screen: it is rich in T/C values a quarter to a half above the control, in often repeated tests (any T/C) and in doses without a T/C. Further doses and runs are listed elsewhere. T/C gives the treated animals as a percentage of the vehicle group. Some doses have a count of surviving animals in place of a T/C: the source files T/C as zero there, which appears to mark a toxic dose or a test without result, not a measured value. Some doses without a T/C left all or most animals alive at the check, yet need not have been tolerated: survival well below the control is almost never listed, so the zero probably covers shortened survival too. Counts of survivors are from the toxicity check (mostly the fifth day) where no day follows; animals may have died later. Schedules are NCI's codes, taken here to give the interval after Q, in days (D) or hours (H), and the number of doses after X. Where survival is the endpoint, the PubChem record calls one and a half times the control and up active, and a quarter to a half above the control has no call in these data; cut-offs in other NCI protocols can differ. Some T/C values carry the count of animals alive at the toxicity check (mostly the fifth day); where none is given, no animal had died by that day.
# Tested on: BDF1 mice, P388 leukemia ip, median survival T/C
# Assay: NCI In Vivo Anticancer Drug Screen. Data for tumor model P388 Leukemia (intraperitoneal) in B6D2F1 (BDF1) mice
# Details: T/C endpoint: median survival time, higher T/C = longer survival
# Outline: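 Each value expresses how treatment altered survival: treated-mouse outcome over vehicle-mouse outcome, both groups bearing the transplanted tumour.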
# [1] = dose: 100.0 mg/kg/injection, schedule: Q01DX009 (ip), vehicle: saline with Tween-80
# [2] = dose: 400.0 mg/kg/injection, schedule: Q04DX003 (ip), vehicle: saline with Tween-80
# [3] = dose: 50.0 mg/kg/injection, schedule: Q01DX009 (ip), vehicle: Klucel (hydroxypropylcellulose) (HPC)
# [4] = dose: 200.0 mg/kg/injection, schedule: Q01DX009 (ip), vehicle: Klucel (hydroxypropylcellulose) (HPC)
smiles,measurement,setting,value
Nc1n[nH]c(N)n1.[Ni],survivor count,"dose: 400.0 mg/kg/injection, schedule: Q01DX009 (ip), vehicle: saline with Tween-80",6 of 6
CCOc1ccc(/C=N/NS(=O)(=O)c2ccccc2)cc1OC,T/C,[1],145 % of control
N=c1ccn(C(=O)C2=Cc3ccccc3OC2)cc1,survivor count,"dose: 10.0 mg/kg/injection, schedule: Q01DX009 (ip), vehicle: saline with Tween-80",6 of 6
same,survivor count,"dose: 20.0 mg/kg/injection, schedule: Q01DX009 (ip), vehicle: saline with Tween-80",6 of 6
c1ccc2c[n+]3cc4ccccc4cc3cc2c1,survivor count,"dose: 35.0 mg/kg/injection, schedule: Q01DX009 (ip), vehicle: saline",2 of 6
same,survivor count,"dose: 50.0 mg/kg/injection, schedule: Q04DX003 (ip), vehicle: saline",5 of 6
O=S(=O)(O)N(O)c1ccccc1,survivor count,"dose: 100.0 mg/kg/injection, schedule: Q01DX001 (ip), vehicle: saline with Tween-80",6 of 6
COc1ccc2nc3c4ccccc4scc-3c2c1,T/C,"dose: 225.0 mg/kg/injection, schedule: Q04DX003 (ip), vehicle: Klucel (hydroxypropylcellulose) (HPC)",138 % of control
same,survivor count,"dose: 335.0 mg/kg/injection, schedule: Q04DX003 (ip), vehicle: Klucel (hydroxypropylcellulose) (HPC)",2 of 6
COc1ccc(S(=O)(=O)Nc2c([N+](=O)[O-])cc([N+](=O)[O-])c3ccccc23)cc1,survivor count,[1],3 of 6
CCCCNC(C)(C)C(SSC(c1cccs1)C(C)(C)NCCCC)c1cccs1 (stereo not given),survivor count,[1],6 of 6
C[n+]1cccc(C2=CCCC2)c1,survivor count,"dose: 100.0 mg/kg/injection, schedule: Q04DX003 (ip), vehicle: saline with Tween-80",0 of 6
same,survivor count,"dose: 200.0 mg/kg/injection, schedule: Q04DX003 (ip), vehicle: saline with Tween-80",0 of 6
same,survivor count,[2],0 of 6
same,survivor count,"dose: 600.0 mg/kg/injection, schedule: Q04DX003 (ip), vehicle: saline with Tween-80",0 of 6
COc1ccc(N2CSC(=S)N(c3ccc(OC)cc3)C2)cc1,survivor count,"dose: 200.0 mg/kg/injection, schedule: Q04DX003 (ip), vehicle: saline",6 of 6
Cc1cc(=O)[nH]c(N/N=C2/CCCCC2C)n1 (stereo not given),survivor count,"dose: 33.0 mg/kg/injection, schedule: Q01DX009 (ip), vehicle: Klucel (hydroxypropylcellulose) (HPC)",6 of 6
same,T/C,[3],131 % of control
same,survivor count,[3],6 of 6
same,survivor count,"dose: 75.0 mg/kg/injection, schedule: Q01DX009 (ip), vehicle: Klucel (hydroxypropylcellulose) (HPC)",6 of 6
same,survivor count,[4],5 of 6
same,survivor count,"dose: 400.0 mg/kg/injection, schedule: Q04DX003 (ip), vehicle: Klucel (hydroxypropylcellulose) (HPC)",2 of 6
CCOc1ccc2nc(N)sc2c1,survivor count,[4],2 of 6
same,survivor count,"dose: 400.0 mg/kg/injection, schedule: Q01DX001 (ip), vehicle: Klucel (hydroxypropylcellulose) (HPC)",1 of 6
same,survivor count,"dose: 400.0 mg/kg/injection, schedule: Q01DX009 (ip), vehicle: Klucel (hydroxypropylcellulose) (HPC)",0 of 6
O=C(O)c1ccc(-c2ccccc2)cc1,survivor count,[2],2 of 6
O=c1[nH]c(=O)c2nccnc2[nH]1,survivor count,"dose: 200.0 mg/kg/injection, schedule: Q01DX009 (ip), vehicle: water",6 of 6
same,T/C,"dose: 400.0 mg/kg/injection, schedule: Q01DX009 (ip), vehicle: water",138 % of control [4 of 6 alive]
CN[C@H]1CC[C@]23C[C@]24CC[C@]2(C)[C@@H]([C@H](C)N(C)C)CC[C@@]2(C)[C@@H]4CC[C@H]3C1(C)C,T/C,"dose: 40.0 mg/kg/injection, schedule: Q01DX010 (ip), vehicle: carboxymethylcellulose (CMC)",145 % of control
same,survivor count,"dose: 60.0 mg/kg/injection, schedule: Q01DX010 (ip), vehicle: carboxymethylcellulose (CMC)",4 of 6
same,survivor count,"dose: 80.0 mg/kg/injection, schedule: Q01DX010 (ip), vehicle: carboxymethylcellulose (CMC)",5 of 6
C=C1C(=O)O[C@H]2C1[C@H](OC(=O)/C(C)=C\COC(C)=O)C[C@]1(CO1)[C@@H]1[C@H](O)[C@H]3O[C@@]3(C)[C@@H]12 (stereo not given in full),T/C,"dose: 3.12 mg/kg/injection, schedule: Q01DX009 (ip), vehicle: other",130 % of control
same,T/C,"dose: 12.5 mg/kg/injection, schedule: Q01DX009 (ip), vehicle: other",135 % of control
same,T/C,"dose: 50.0 mg/kg/injection, schedule: Q01DX009 (ip), vehicle: other",140 % of control
same,survivor count,"dose: 100.0 mg/kg/injection, schedule: Q01DX009 (ip), vehicle: other",1 of 6
